This test has as its target T1, FLAG-tagged NME3 (NME/NM23 nucleoside-diphosphate kinase 3), wild type (human) (UniProt Q13232).
T1 sequence: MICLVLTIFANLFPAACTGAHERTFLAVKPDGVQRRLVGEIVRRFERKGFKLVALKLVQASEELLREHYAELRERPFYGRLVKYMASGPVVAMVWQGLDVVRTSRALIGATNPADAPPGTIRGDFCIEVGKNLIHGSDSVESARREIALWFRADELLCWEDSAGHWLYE
As to the kind of experiment: co-IP; FLAG-tagged and V5-tagged proteins coexpressed in HEK293T cells (calcium phosphate, 24 h); lysis in 1% Triton X-100, 20 mM Tris pH 7.5, 50 mM NaCl, 50 mM NaF, 15 mM Na4P2O7, 0.1 mM EDTA; anti-FLAG M2 agarose beads 2 h; Western blot with anti-V5 and anti-FLAG. Background: A western blot detects proteins with antibodies after separation by electrophoresis.

No constants are given. Whether binding was seen depends on the method and setting. Binding seen in cells or lysates may run through a third protein. Some results given as binding are weak or reduced against the parent protein; the word gives no strength. Sequences can lack the tags named with a protein.

B1: V5-tagged NEK8 (enzyme, UniProt Q86SG6 1-692)
chain: MEKYERIRVVGRGAFGIVHLCLRKADQKLVIIKQIPVEQMTKEERQAAQNECQVLKLLNHPNVIEYYENFLEDKALMIAMEYAPGGTLAEFIQKRCNSLLEEETILHFFVQILLALHHVHTHLILHRDLKTQNILLDKHRMVVKIGDFGISKILSSKSKAYTVVGTPCYISPELCEGKPYNQKSDIWALGCVLYELASLKRAFEAANLPALVLKIMSGTFAPISDRYSPELRQLVLSLLSLEPAQRPPLSHIMAQPLCIRALLNLHTDVGSVRMRRAEKSVAPSNTGSRTTSVRCRGIPRGPVRPAIPPPLSSVYAWGGGLGTPLRLPMLNTEVVQVAAGRTQKAGVTRSGRLILWEAPPLGAGGGSLLPGAVEQPQPQFISRFLEGQSGVTIKHVACGDFFTACLTDRGIIMTFGSGSNGCLGHGSLTDISQPTIVEALLGYEMVQVACGASHVLALSTERELFAWGRGDSGRLGLGTRESHSCPQQVPMPPGQEAQRVVCGIDSSMILTVPGQALACGSNRFNKLGLDHLSLGEEPVPHQQVEEALSFTLLGSAPLDQEPLLSIDLGTAHSAAVTASGDCYTFGSNQHGQLGTNTRRGSRAPCKVQGLEGIKMAMVACGDAFTVAIGAESEVYSWGKGARGRLGRRDEDAGLPRPVQLDETHPYTVTSVSCCHGNTLLAVRSVTDEPVPP
Consider B1, for which the binding result is “binds”.

The record behind these values is paper PMC6166740.
